# Results are given in words; binding and its absence hold for the method and conditions named. In cells and extracts the contact can be indirect. Some entries that bind do so weakly or less than the wild type. For some of these results: Where a sequence is shown, tags or fusion partners need not be part of it.
# Protein sequences, listed by entry. Tags and fused reporters are not part of them.
# UniProt Q9Y4G2: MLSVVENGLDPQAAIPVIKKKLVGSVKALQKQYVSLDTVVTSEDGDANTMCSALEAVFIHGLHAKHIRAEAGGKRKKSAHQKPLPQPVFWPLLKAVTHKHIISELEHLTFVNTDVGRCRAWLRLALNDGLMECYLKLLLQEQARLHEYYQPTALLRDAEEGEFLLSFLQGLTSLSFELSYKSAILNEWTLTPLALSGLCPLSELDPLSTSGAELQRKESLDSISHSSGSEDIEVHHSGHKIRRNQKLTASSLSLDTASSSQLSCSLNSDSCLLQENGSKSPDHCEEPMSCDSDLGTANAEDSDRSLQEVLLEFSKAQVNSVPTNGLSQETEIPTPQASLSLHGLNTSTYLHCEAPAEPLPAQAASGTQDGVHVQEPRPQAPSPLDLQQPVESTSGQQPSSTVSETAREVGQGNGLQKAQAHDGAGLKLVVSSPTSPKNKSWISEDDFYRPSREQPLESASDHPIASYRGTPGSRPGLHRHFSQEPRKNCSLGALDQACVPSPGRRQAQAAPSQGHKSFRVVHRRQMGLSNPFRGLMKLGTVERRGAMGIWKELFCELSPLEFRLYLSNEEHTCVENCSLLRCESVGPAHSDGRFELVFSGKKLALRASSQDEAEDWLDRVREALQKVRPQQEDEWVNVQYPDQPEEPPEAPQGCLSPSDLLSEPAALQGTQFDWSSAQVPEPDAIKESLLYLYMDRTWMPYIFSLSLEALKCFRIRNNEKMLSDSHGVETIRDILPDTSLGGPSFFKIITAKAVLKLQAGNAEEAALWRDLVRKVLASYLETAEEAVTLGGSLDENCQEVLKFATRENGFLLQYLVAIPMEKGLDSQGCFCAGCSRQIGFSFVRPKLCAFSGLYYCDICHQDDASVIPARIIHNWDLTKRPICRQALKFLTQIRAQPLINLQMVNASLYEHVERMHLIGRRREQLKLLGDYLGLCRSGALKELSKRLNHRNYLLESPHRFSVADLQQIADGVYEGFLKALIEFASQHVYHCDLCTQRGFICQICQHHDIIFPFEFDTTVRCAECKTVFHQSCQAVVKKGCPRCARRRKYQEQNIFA
# T1: HA-Vps39 (UniProt Q96JC1)
# T1 sequence: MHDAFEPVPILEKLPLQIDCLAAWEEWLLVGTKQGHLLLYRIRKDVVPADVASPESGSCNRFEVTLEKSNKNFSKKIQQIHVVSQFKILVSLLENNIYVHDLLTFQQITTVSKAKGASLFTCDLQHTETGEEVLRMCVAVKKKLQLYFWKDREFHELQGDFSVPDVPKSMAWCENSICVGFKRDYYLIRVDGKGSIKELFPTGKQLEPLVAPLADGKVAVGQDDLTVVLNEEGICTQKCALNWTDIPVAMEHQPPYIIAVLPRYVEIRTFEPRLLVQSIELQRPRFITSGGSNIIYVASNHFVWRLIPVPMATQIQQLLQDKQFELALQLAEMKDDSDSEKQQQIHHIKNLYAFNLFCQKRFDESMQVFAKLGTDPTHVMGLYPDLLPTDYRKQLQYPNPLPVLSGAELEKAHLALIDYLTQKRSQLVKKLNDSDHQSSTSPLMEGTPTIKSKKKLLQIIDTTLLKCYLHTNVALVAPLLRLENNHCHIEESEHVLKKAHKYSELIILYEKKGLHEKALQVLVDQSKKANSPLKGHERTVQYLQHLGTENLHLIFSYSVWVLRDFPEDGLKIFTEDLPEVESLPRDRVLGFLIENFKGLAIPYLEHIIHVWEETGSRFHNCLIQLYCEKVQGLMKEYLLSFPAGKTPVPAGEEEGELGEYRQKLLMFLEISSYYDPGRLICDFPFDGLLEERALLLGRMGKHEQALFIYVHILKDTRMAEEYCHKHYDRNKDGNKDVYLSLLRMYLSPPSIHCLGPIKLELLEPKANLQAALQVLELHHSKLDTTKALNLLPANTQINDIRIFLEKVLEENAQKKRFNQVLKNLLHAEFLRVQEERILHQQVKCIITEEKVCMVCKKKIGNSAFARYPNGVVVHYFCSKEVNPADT
# B1: Vps11 (HOPS subunit), in cell lysate (protein, UniProt Q9H270 1-941)
# chain: MAAYLQWRRFVFFDKELVKEPLSNDGAAPGATPASGSAASKFLCLPPGITVCDSGRGSLVFGDMEGQIWFLPRSLQLTGFQAYKLRVTHLYQLKQHNILASVGEDEEGINPLVKIWNLEKRDGGNPLCTRIFPAIPGTEPTVVSCLTVHENLNFMAIGFTDGSVTLNKGDITRDRHSKTQILHKGNYPVTGLAFRQAGKTTHLFVVTTENVQSYIVSGKDYPRVELDTHGCGLRCSALSDPSQDLQFIVAGDECVYLYQPDERGPCFAFEGHKLIAHWFRGYLIIVSRDRKVSPKSEFTSRDSQSSDKQILNIYDLCNKFIAYSTVFEDVVDVLAEWGSLYVLTRDGRVHALQEKDTQTKLEMLFKKNLFEMAINLAKSQHLDSDGLAQIFMQYGDHLYSKGNHDGAVQQYIRTIGKLEPSYVIRKFLDAQRIHNLTAYLQTLHRQSLANADHTTLLLNCYTKLKDSSKLEEFIKKKSESEVHFDVETAIKVLRQAGYYSHALYLAENHAHHEWYLKIQLEDIKNYQEALRYIGKLPFEQAESNMKRYGKILMHHIPEQTTQLLKGLCTDYRPSLEGRSDREAPGCRANSEEFIPIFANNPRELKAFLEHMSEVQPDSPQGIYDTLLELRLQNWAHEKDPQVKEKLHAEAISLLKSGRFCDVFDKALVLCQMHDFQDGVLYLYEQGKLFQQIMHYHMQHEQYRQVISVCERHGEQDPSLWEQALSYFARKEEDCKEYVAAVLKHIENKNLMPPLLVVQTLAHNSTATLSVIRDYLVQKLQKQSQQIAQDELRVRRYREETTRIRQEIQELKASPKIFQKTKCSICNSALELPSVHFLCGHSFHQHCFESYSESDADCPTCLPENRKVMDMIRAQEQKRDLHDQFQHQLKCSNDSFSVIADYFGRGVFNKLTLLTDPPTARLTSSLEAGLQRDLLMHSRRGT
# B2: Vps41 (HOPS subunit), in cell lysate, P49754 1-854 (protein)
# chain: MAEAEEQETGSLEESTDESEEEESEEEPKLKYERLSNGVTEILQKDAASCMTVHDKFLALGTHYGKVYLLDVQGNITQKFDVSPVKINQISLDESGEHMGVCSEDGKVQVFGLYSGEEFHETFDCPIKIIAVHPHFVRSSCKQFVTGGKKLLLFERSWMNRWKSAVLHEGEGNIRSVKWRGHLIAWANNMGVKIFDIISKQRITNVPRDDISLRPDMYPCSLCWKDNVTLIIGWGTSVKVCSVKERHASEMRDLPSRYVEIVSQFETEFYISGLAPLCDQLVVLSYVKEISEKTEREYCARPRLDIIQPLSETCEEISSDALTVRGFQENECRDYHLEYSEGESLFYIVSPRDVVVAKERDQDDHIDWLLEKKKYEEALMAAEISQKNIKRHKILDIGLAYINHLVERGDYDIAARKCQKILGKNAALWEYEVYKFKEIGQLKAISPYLPRGDPVLKPLIYEMILHEFLESDYEGFATLIREWPGDLYNNSVIVQAVRDHLKKDSQNKTLLKTLAELYTYDKNYGNALEIYLTLRHKDVFQLIHKHNLFSSIKDKIVLLMDFDSEKAVDMLLDNEDKISIKKVVEELEDRPELQHVYLHKLFKRDHHKGQRYHEKQISLYAEYDRPNLLPFLRDSTHCPLEKALEICQQRNFVEETVYLLSRMGNSRSALKMIMEELHDVDKAIEFAKEQDDGELWEDLILYSIDKPPFITGLLNNIGTHVDPILLIHRIKEGMEIPNLRDSLVKILQDYNLQILLREGCKKILVADSLSLLKKMHRTQMKGVLVDEENICESCLSPILPSDAAKPFSVVVFHCRHMFHKECLPMPSMNSAAQFCNICSAKNRGPGSAILEMKK
# B3: Vps18 (HOPS subunit), in cell lysate (protein, UniProt Q9P253 1-973)
# chain: MASILDEYENSLSRSAVLQPGCPSVGIPHSGYVNAQLEKEVPIFTKQRIDFTPSERITSLVVSSNQLCMSLGKDTLLRIDLGKANEPNHVELGRKDDAKVHKMFLDHTGSHLLIALSSTEVLYVNRNGQKVRPLARWKGQLVESVGWNKALGTESSTGPILVGTAQGHIFEAELSASEGGLFGPAPDLYFRPLYVLNEEGGPAPVCSLEAERGPDGRSFVIATTRQRLFQFIGRAAEGAEAQGFSGLFAAYTDHPPPFREFPSNLGYSELAFYTPKLRSAPRAFAWMMGDGVLYGALDCGRPDSLLSEERVWEYPEGVGPGASPPLAIVLTQFHFLLLLADRVEAVCTLTGQVVLRDHFLEKFGPLKHMVKDSSTGQLWAYTERAVFRYHVQREARDVWRTYLDMNRFDLAKEYCRERPDCLDTVLAREADFCFRQRRYLESARCYALTQSYFEEIALKFLEARQEEALAEFLQRKLASLKPAERTQATLLTTWLTELYLSRLGALQGDPEALTLYRETKECFRTFLSSPRHKEWLFASRASIHELLASHGDTEHMVYFAVIMQDYERVVAYHCQHEAYEEALAVLARHRDPQLFYKFSPILIRHIPRQLVDAWIEMGSRLDARQLIPALVNYSQGGEVQQVSQAIRYMEFCVNVLGETEQAIHNYLLSLYARGRPDSLLAYLEQAGASPHRVHYDLKYALRLCAEHGHHRACVHVYKVLELYEEAVDLALQVDVDLAKQCADLPEEDEELRKKLWLKIARHVVQEEEDVQTAMACLASCPLLKIEDVLPFFPDFVTIDHFKEAICSSLKAYNHHIQELQREMEEATASAQRIRRDLQELRGRYGTVEPQDKCATCDFPLLNRPFYLFLCGHMFHADCLLQAVRPGLPAYKQARLEELQRKLGAAPPPAKGSARAKEAEGGAATAGPSREQLKADLDELVAAECVYCGELMIRSIDRPFIDPQRYEEEQLSWL
# B4: Vps33a (HOPS subunit), in cell lysate (protein, UniProt Q96AX1 1-596)
# chain: MAAHLSYGRVNLNVLREAVRRELREFLDKCAGSKAIVWDEYLTGPFGLIAQYSLLKEHEVEKMFTLKGNRLPAADVKNIIFFVRPRLELMDIIAENVLSEDRRGPTRDFHILFVPRRSLLCEQRLKDLGVLGSFIHREEYSLDLIPFDGDLLSMESEGAFKECYLEGDQTSLYHAAKGLMTLQALYGTIPQIFGKGECARQVANMMIRMKREFTGSQNSIFPVFDNLLLLDRNVDLLTPLATQLTYEGLIDEIYGIQNSYVKLPPEKFAPKKQGDGGKDLPTEAKKLQLNSAEELYAEIRDKNFNAVGSVLSKKAKIISAAFEERHNAKTVGEIKQFVSQLPHMQAARGSLANHTSIAELIKDVTTSEDFFDKLTVEQEFMSGIDTDKVNNYIEDCIAQKHSLIKVLRLVCLQSVCNSGLKQKVLDYYKREILQTYGYEHILTLHNLEKAGLLKPQTGGRNNYPTIRKTLRLWMDDVNEQNPTDISYVYSGYAPLSVRLAQLLSRPGWRSIEEVLRILPGPHFEERQPLPTGLQKKRQPGENRVTLIFFLGGVTFAEIAALRFLSQLEDGGTEYVIATTKLMNGTSWIEALMEKPF
# Key:
# Assay in all cases: co-IP
# HA-Vps39 = target: T1, HA-Vps39
# FLAG-PLEKHM1, Q9Y4G2 = conditions: remark: other sources report otherwise
# FLAG-PLEKHM1 = FLAG-PLEKHM1 (UniProt Q9Y4G2)
Binder,binding (FLAG-PLEKHM1),other results
B1,–,binding (HA-Vps39): binds
B2,–,"binding (FLAG-PLEKHM1, Q9Y4G2): binds"
B3,binds,–
B4,binds,–

# — paper PMC10918171
